This is one part of the list.
Tests used:
Assay in all cases: log2 fold change, soluble protein after heating vs DMSO (PISA); higher = thermal stabilisation; K562 lysate, 10 uM; active = over 0.2 and 3.5 SD of the protein, either way, in both replicates (recomputed)
lapatinib = compound: CS(=O)(=O)CCNCc1ccc(-c2ccc3ncnc(Nc4ccc(OCc5cccc(F)c5)c(Cl)c4)c3c2)o1 [lapatinib]
How it was run: (§1)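 Dounce homogenisation of K562 pellets in PBS pH 7.4 with 1 mM MgCl2 produced a crude extract, used at 1 mg/mL protein. Exposure to 10 μM compound lasted 30 min, and aliquots were then heated for 3 min across 48°C-58°C, pooled and brought to 0.5% NP-40 at 4°C. The supernatant after 21,000xg for 90 min was quantified by TMTpro 16plex LC-MS/MS with channel sums equalised. Duplicate values are given as log-two fold change in thermal stability relative to solvent controls.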

Sequences of proteins named here, by UniProt entry; tags and fusion partners are left off. A change or cut given only in a name is not applied to a line headed by its entry.
UniProt Q01831: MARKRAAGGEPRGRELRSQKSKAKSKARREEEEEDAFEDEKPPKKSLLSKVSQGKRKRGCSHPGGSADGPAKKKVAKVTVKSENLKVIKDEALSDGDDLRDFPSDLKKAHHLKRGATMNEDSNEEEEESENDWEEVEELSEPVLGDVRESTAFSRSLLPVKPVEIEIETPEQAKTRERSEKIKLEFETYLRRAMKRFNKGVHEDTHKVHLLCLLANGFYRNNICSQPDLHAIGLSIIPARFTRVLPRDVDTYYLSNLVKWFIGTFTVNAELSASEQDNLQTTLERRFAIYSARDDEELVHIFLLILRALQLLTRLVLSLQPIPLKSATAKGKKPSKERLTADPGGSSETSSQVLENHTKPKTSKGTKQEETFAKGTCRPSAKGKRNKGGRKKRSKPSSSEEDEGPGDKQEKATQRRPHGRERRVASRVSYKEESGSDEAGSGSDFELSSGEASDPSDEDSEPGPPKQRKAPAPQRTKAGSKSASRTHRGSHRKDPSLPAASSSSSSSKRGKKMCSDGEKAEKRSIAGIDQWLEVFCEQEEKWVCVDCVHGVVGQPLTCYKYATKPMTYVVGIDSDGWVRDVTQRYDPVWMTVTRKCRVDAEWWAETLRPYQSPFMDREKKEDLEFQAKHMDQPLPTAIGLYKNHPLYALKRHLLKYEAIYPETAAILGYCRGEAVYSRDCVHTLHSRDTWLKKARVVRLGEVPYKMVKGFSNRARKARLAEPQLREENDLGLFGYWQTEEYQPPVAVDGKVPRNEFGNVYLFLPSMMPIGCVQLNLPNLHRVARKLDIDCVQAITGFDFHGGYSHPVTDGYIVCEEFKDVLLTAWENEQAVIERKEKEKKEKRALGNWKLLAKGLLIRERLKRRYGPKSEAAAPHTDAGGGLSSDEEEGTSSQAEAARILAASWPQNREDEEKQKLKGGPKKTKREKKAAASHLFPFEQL
UniProt Q9UK41: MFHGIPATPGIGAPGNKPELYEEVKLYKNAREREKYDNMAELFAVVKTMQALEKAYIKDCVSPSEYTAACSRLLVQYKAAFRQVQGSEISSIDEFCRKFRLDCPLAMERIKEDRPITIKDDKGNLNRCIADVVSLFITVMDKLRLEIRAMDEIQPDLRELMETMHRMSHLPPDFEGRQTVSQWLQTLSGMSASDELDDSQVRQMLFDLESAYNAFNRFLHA
UniProt Q86VN1: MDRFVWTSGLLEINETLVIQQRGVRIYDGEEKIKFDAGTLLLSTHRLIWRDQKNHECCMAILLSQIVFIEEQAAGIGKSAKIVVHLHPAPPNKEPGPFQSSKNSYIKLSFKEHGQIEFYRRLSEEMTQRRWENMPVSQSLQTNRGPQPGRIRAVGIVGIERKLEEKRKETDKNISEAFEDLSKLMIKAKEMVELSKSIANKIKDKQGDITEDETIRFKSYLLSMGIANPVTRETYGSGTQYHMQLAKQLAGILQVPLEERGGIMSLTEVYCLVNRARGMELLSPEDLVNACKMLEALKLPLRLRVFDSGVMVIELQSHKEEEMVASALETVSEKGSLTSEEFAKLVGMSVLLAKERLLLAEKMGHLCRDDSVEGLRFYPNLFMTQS
UniProt Q8IV63: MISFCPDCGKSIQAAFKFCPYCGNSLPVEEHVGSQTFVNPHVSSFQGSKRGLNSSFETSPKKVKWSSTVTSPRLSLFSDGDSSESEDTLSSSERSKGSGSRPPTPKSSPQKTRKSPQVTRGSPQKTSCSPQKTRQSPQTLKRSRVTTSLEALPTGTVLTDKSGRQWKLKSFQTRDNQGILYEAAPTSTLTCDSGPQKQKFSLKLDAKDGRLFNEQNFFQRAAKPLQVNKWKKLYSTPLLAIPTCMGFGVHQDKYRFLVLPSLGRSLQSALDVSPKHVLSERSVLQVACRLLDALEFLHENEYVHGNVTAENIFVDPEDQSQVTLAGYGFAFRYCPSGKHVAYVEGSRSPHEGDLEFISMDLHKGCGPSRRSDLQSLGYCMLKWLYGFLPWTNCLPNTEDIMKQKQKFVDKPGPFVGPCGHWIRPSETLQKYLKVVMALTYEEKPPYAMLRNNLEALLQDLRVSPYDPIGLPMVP
UniProt O15213: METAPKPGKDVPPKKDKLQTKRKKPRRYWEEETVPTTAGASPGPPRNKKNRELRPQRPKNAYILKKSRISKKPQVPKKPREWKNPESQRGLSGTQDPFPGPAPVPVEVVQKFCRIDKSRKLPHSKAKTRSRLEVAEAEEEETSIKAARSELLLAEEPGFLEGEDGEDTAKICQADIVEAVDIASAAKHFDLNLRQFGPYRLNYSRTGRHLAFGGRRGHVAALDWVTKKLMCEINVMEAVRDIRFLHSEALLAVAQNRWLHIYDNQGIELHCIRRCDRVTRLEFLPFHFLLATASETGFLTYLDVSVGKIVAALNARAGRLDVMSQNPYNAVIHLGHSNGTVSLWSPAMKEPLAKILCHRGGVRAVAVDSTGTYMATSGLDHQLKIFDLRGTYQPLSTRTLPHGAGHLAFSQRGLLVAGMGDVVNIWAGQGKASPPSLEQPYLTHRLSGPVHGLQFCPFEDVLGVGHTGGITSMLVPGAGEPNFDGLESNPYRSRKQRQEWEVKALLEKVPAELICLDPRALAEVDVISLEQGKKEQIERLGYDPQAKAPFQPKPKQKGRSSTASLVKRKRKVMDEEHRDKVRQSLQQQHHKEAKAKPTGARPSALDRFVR
UniProt Q9UNX4: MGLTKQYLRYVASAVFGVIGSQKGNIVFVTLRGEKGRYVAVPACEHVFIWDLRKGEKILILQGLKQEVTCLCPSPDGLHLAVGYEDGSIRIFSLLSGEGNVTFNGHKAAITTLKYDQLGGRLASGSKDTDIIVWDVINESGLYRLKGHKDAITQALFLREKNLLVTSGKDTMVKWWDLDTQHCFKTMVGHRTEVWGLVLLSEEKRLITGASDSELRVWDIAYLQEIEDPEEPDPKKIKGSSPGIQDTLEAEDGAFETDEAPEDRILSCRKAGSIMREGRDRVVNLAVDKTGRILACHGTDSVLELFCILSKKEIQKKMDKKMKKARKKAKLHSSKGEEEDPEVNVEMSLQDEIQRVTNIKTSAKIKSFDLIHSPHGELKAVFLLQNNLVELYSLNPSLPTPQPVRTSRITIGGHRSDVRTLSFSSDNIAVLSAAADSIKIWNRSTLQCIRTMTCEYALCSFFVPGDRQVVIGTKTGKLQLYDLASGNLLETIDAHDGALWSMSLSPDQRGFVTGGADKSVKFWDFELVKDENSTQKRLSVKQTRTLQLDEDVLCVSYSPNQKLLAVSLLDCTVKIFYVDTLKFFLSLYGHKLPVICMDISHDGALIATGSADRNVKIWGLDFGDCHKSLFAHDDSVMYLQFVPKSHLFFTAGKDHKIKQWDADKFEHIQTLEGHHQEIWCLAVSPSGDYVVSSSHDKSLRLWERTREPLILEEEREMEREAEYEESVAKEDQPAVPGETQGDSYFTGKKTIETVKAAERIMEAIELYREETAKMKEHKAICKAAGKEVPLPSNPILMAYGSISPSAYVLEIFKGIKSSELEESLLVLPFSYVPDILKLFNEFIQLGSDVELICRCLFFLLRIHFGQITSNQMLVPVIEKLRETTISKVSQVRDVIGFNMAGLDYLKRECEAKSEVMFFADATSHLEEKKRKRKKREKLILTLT
UniProt Q9NP79: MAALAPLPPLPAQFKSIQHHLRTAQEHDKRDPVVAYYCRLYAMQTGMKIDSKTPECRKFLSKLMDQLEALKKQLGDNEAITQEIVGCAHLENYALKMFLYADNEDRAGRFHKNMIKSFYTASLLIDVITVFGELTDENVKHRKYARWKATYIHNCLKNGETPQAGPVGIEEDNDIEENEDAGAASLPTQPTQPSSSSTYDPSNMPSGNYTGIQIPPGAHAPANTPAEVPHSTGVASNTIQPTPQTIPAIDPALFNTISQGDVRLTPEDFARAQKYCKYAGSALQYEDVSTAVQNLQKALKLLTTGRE
UniProt Q96S15: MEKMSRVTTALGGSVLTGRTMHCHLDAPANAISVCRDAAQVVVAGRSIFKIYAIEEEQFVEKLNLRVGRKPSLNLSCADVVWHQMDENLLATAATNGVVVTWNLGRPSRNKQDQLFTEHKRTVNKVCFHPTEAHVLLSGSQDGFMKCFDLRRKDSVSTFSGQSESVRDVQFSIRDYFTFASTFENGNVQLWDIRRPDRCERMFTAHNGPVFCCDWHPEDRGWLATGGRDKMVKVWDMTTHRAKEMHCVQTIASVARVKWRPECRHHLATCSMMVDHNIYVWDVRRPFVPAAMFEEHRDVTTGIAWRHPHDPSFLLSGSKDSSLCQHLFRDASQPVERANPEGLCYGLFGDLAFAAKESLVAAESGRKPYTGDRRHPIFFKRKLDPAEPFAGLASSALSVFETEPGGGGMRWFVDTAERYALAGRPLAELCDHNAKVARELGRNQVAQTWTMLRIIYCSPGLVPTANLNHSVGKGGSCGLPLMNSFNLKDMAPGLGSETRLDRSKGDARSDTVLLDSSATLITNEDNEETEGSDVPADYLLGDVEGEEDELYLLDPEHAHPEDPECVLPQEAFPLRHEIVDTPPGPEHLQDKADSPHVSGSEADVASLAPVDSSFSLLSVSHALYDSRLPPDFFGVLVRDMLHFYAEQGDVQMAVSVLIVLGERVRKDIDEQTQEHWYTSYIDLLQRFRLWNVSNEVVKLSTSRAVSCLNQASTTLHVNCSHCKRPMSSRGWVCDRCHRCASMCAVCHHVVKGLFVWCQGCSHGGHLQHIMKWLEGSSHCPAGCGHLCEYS
UniProt Q9BRG1: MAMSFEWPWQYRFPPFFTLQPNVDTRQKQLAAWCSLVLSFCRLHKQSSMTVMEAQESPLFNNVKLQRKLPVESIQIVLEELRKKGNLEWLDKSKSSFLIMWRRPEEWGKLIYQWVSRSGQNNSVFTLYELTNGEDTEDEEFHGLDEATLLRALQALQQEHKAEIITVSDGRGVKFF
UniProt Q12768: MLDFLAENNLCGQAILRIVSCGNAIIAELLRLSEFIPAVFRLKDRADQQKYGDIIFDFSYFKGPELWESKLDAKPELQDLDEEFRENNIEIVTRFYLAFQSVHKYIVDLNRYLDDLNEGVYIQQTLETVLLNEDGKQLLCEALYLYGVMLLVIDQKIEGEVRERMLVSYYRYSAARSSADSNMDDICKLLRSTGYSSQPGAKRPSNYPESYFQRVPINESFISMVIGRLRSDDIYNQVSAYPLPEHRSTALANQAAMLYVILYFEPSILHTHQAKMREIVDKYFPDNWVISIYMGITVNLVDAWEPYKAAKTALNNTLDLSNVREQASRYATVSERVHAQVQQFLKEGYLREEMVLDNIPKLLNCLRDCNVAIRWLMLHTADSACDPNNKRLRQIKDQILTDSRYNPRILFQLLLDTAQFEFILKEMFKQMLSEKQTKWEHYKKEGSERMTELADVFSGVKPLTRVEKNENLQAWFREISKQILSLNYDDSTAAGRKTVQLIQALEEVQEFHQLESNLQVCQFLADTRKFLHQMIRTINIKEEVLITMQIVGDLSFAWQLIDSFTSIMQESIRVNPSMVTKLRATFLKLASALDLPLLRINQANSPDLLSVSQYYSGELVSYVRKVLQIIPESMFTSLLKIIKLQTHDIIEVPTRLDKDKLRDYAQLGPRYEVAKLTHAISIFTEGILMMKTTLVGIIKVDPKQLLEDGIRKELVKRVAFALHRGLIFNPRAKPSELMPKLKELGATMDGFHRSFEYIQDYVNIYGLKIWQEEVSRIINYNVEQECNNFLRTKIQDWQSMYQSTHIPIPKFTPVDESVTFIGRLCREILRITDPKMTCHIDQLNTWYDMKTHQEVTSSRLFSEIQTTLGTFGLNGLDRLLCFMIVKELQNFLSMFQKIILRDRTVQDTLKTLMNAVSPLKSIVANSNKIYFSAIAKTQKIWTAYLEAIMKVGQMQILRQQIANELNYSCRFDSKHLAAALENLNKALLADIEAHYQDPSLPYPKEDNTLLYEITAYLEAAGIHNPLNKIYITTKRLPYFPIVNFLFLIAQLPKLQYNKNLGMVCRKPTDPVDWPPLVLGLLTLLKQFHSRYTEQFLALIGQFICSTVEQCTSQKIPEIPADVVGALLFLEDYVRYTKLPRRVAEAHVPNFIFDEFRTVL
UniProt O75351, whole entry, looked up: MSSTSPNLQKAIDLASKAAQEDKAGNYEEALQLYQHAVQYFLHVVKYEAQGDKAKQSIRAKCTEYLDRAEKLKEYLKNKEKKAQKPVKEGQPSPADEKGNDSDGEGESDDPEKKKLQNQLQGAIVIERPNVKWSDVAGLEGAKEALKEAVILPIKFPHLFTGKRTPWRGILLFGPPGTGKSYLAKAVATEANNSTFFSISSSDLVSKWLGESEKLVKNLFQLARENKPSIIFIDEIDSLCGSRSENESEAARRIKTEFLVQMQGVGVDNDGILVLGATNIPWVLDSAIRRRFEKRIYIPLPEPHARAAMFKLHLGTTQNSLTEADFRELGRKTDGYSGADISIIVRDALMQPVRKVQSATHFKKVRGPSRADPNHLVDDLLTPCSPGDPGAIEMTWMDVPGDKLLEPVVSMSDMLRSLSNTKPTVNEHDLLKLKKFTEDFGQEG

pictilisib = compound: CS(=O)(=O)N1CCN(Cc2cc3nc(-c4cccc5[nH]ncc45)nc(N4CCOCC4)c3s2)CC1 [pictilisib]
How it was run: as §1

crizotinib = compound: C[C@@H](Oc1cc(-c2cnn(C3CCNCC3)c2)cnc1N)c1c(Cl)ccc(F)c1Cl [crizotinib]
How it was run: as §1

[1] = compound: C[C@H](C1=CC=C(C=C1)C(=O)NC2=C3C=CNC3=NC=C2)N
How it was run: as §1

duvelisib = compound: C[C@H](Nc1ncnc2nc[nH]c12)c1cc2cccc(Cl)c2c(=O)n1-c1ccccc1 [duvelisib]
How it was run: as §1

gandotinib = compound: Cc1cc(Nc2cc(CN3CCOCC3)c3nc(C)c(Cc4ccc(Cl)cc4F)n3n2)n[nH]1 [gandotinib]
How it was run: as §1

tozasertib = compound: Cc1cc(Nc2cc(N3CCN(C)CC3)nc(Sc3ccc(NC(=O)C4CC4)cc3)n2)n[nH]1 [tozasertib]
How it was run: as §1

doramapimod = compound: Cc1ccc(-n2nc(C(C)(C)C)cc2NC(=O)Nc2ccc(OCCN3CCOCC3)c3ccccc23)cc1 [doramapimod]
How it was run: as §1

bafetinib = compound: Cc1ccc(NC(=O)c2ccc(CN3CC[C@H](N(C)C)C3)c(C(F)(F)F)c2)cc1Nc1nccc(-c2cncnc2)n1 [bafetinib]
How it was run: as §1

[2] = compound: Cc1cccc(CC(=O)N2CCc3c2ccc(-c2cn(C)c4ncnc(N)c24)c3F)n1
How it was run: as §1

nilotinib = compound: Cc1cn(-c2cc(NC(=O)c3ccc(C)c(Nc4nccc(-c5cccnc5)n4)c3)cc(C(F)(F)F)c2)cn1 [nilotinib]
How it was run: as §1

[3] = compound: Cc1nc(Nc2n[nH]c3c2CN(C(=O)N[C@H](CN(C)C)c2ccccc2)C3(C)C)c2sccc2n1
How it was run: as §1

dasatinib = compound: Cc1nc(Nc2ncc(C(=O)Nc3c(C)cccc3Cl)s2)cc(N2CCN(CCO)CC2)n1 [dasatinib]
How it was run: as §1

[4] = compound: Cc1ncc(-c2ccnc(Nc3ccc(S(C)(=O)=O)cc3)n2)n1C(C)C
How it was run: as §1

[5] = compound: Cn1cc(-c2ccc3c(c2)CCN3C(=O)Cc2cccc(C(F)(F)F)c2)c2c(N)ncnc21
How it was run: as §1

quisinostat = compound: Cn1cc(CNCC2CCN(c3ncc(C(=O)NO)cn3)CC2)c2ccccc21 [quisinostat]
How it was run: as §1

tipifarnib = compound: Cn1cncc1[C@@](N)(c1ccc(Cl)cc1)c1ccc2c(c1)c(-c1cccc(Cl)c1)cc(=O)n2C [tipifarnib]
How it was run: as §1

[6] = compound: NC(=O)Nc1cc(-c2cccc(F)c2)sc1C(=O)N[C@H]1CCCNC1
How it was run: as §1

[7] = compound: NC(=O)c1cnc(N[C@@H]2CCCC[C@@H]2N)nc1Nc1cccc(-n2nccn2)c1
How it was run: as §1

[8] = compound: NC1(c2ccc(-c3nc4ccn5c(=O)[nH]nc5c4cc3-c3ccccc3)cc2)CCC1
How it was run: as §1

Measured: log2 fold change

VPS18 (UniProt Q9P253)
inactive: lapatinib 0.009 | pictilisib -0.017 | crizotinib -0.049 | [1] -0.056 | duvelisib -0.04 | gandotinib -0.032 | tozasertib -0.003 | doramapimod -0.004 | bafetinib -0.06 | [2] 0.047 | nilotinib -0.013 | [3] -0.029 | dasatinib -0.016 | [4] 0.003 | [5] -0.005 | quisinostat -0.018 | tipifarnib -0.05 | [6] 0.029 | [7] 0.01 | [8] -0.019

XPC (UniProt Q01831)
inactive: lapatinib -0.061 | pictilisib 0.029 | crizotinib -0.087 | [1] 0.059 | duvelisib 0.038 | gandotinib -0.076 | tozasertib 0.025 | doramapimod -0.026 | bafetinib -0.125 | [2] -0.011 | nilotinib 0.088 | [3] -0.116 | dasatinib -0.007 | [4] 0.006 | [5] -0.001 | quisinostat -0.069 | tipifarnib -0.122 | [6] 0.068 | [7] -0.005 | [8] -0.055

VPS28 (UniProt Q9UK41)
inactive: lapatinib 0.038 | pictilisib -0.005 | crizotinib 0.051 | [1] -0.132 | duvelisib -0.032 | gandotinib 0.018 | tozasertib -0.03 | doramapimod -0.005 | bafetinib 0.034 | [2] 0.034 | nilotinib -0.031 | [3] 0.034 | dasatinib 0.021 | [4] 0.004 | [5] 0.086 | quisinostat 0.081 | tipifarnib 0.029 | [6] -0.038 | [7] 0.012 | [8] -0.027

VPS36 (UniProt Q86VN1)
inactive: lapatinib 0.013 | pictilisib 0.026 | crizotinib 0 | [1] -0.105 | duvelisib 0.034 | gandotinib 0.011 | tozasertib 0.013 | doramapimod 0.072 | bafetinib -0.027 | [2] 0.082 | nilotinib -0.042 | [3] 0.015 | dasatinib 0.002 | [4] 0 | [5] 0.004 | quisinostat -0.026 | tipifarnib 0.052 | [6] 0.008 | [7] 0.012 | [8] -0.005

VRK3 (UniProt Q8IV63)
inactive: lapatinib 0.008 | pictilisib -0.029 | crizotinib -0.055 | [1] -0.007 | duvelisib 0.029 | gandotinib -0.012 | tozasertib 0.054 | doramapimod 0.008 | bafetinib 0.082 | [2] -0.037 | nilotinib 0.035 | [3] 0.028 | dasatinib 0.044 | [4] -0.001 | [5] 0.011 | quisinostat -0.011 | tipifarnib 0.053 | [6] 0.031 | [7] -0.001 | [8] 0.032

WDR46 (UniProt O15213)
inactive: lapatinib -0.027 | pictilisib 0.034 | crizotinib -0.02 | [1] 0.02 | duvelisib 0.048 | gandotinib -0.029 | tozasertib 0.061 | doramapimod -0.024 | bafetinib 0.007 | [2] -0.056 | nilotinib 0.017 | [3] -0.212 | dasatinib 0.003 | [4] -0.101 | [5] 0.036 | quisinostat -0.109 | tipifarnib 0.033 | [6] 0.028 | [7] 0.013 | [8] -0.093

WDR3 (UniProt Q9UNX4)
inactive: lapatinib -0.012 | pictilisib -0.113 | crizotinib -0.003 | [1] -0.054 | duvelisib 0.008 | gandotinib -0.022 | tozasertib 0.003 | doramapimod 0.01 | bafetinib -0.083 | [2] 0.14 | nilotinib 0.055 | [3] 0.001 | dasatinib -0.069 | [4] -0.016 | [5] 0.027 | quisinostat 0.044 | tipifarnib -0.003 | [6] 0.021 | [7] 0.023 | [8] 0.009

VTA1 (UniProt Q9NP79)
inactive: lapatinib -0.001 | pictilisib -0.027 | crizotinib 0.032 | [1] 0.033 | duvelisib -0.045 | gandotinib -0.067 | tozasertib -0.001 | doramapimod 0 | bafetinib 0.092 | [2] -0.09 | nilotinib -0.006 | [3] -0.008 | dasatinib 0.041 | [4] -0.018 | [5] 0.031 | quisinostat 0.043 | tipifarnib 0.022 | [6] 0.014 | [7] -0.007 | [8] -0.002

WDR24 (UniProt Q96S15)
inactive: lapatinib -0.004 | pictilisib 0.104 | crizotinib -0.006 | [1] -0.072 | duvelisib 0.004 | gandotinib 0.072 | tozasertib 0.065 | doramapimod -0.166 | bafetinib -0.134 | [2] 0.125 | nilotinib 0.124 | [3] -0.09 | dasatinib -0.072 | [4] 0.05 | [5] -0.022 | quisinostat -0.013 | tipifarnib -0.096 | [6] 0.038 | [7] 0.04 | [8] -0.002

VPS25 (UniProt Q9BRG1)
inactive: lapatinib -0.012 | pictilisib 0.008 | crizotinib 0.028 | [1] 0.17 | duvelisib -0.018 | gandotinib -0.069 | tozasertib -0.029 | doramapimod -0.025 | bafetinib -0.046 | [2] -0.038 | nilotinib -0.006 | [3] 0.008 | dasatinib 0.01 | [4] -0.074 | [5] -0.007 | quisinostat 0.027 | tipifarnib 0.036 | [6] 0.006 | [7] -0.006 | [8] -0.004

Two consecutive entries already listed:
XPC (UniProt Q01831)
inactive: lapatinib -0.061 | pictilisib 0.029 | crizotinib -0.087 | [1] 0.059 | duvelisib 0.038 | gandotinib -0.076 | tozasertib 0.025 | doramapimod -0.026 | bafetinib -0.125 | [2] -0.011 | nilotinib 0.088 | [3] -0.116 | dasatinib -0.007 | [4] 0.006 | [5] -0.001 | quisinostat -0.069 | tipifarnib -0.122 | [6] 0.068 | [7] -0.005 | [8] -0.055

VPS28 (UniProt Q9UK41)
inactive: lapatinib 0.038 | pictilisib -0.005 | crizotinib 0.051 | [1] -0.132 | duvelisib -0.032 | gandotinib 0.018 | tozasertib -0.03 | doramapimod -0.005 | bafetinib 0.034 | [2] 0.034 | nilotinib -0.031 | [3] 0.034 | dasatinib 0.021 | [4] 0.004 | [5] 0.086 | quisinostat 0.081 | tipifarnib 0.029 | [6] -0.038 | [7] 0.012 | [8] -0.027

Following part.

VPS13C (UniProt Q709C8)
inactive: lapatinib -0.008 | pictilisib 0.023 | crizotinib 0.003 | [1] -0.065 | duvelisib 0.021 | gandotinib -0.055 | tozasertib 0.052 | doramapimod -0.006 | bafetinib -0.054 | [2] 0.213 | nilotinib 0.138 | [3] 0.043 | dasatinib -0.011 | [4] -0.069 | [5] -0.039 | quisinostat -0.034 | tipifarnib -0.177 | [6] -0.009 | [7] -0.028 | [8] -0.05

VKORC1 (UniProt Q9BQB6)
inactive: lapatinib -0.111 | pictilisib -0.023 | crizotinib -0.011 | [1] -0.087 | duvelisib 0.082 | gandotinib -0.203 | tozasertib 0.045 | doramapimod -0.017 | bafetinib -0.038 | [2] 0.006 | nilotinib -0.022 | [3] -0.037 | dasatinib -0.046 | [4] -0.025 | [5] 0.018 | quisinostat -0.052 | tipifarnib -0.116 | [6] 0.055 | [7] 0.047 | [8] -0.028

WASHC5 (UniProt Q12768)
inactive: lapatinib 0.001 | pictilisib -0.038 | crizotinib -0.025 | [1] -0.043 | duvelisib -0.019 | gandotinib -0.001 | tozasertib -0.003 | doramapimod 0.043 | bafetinib -0.067 | [2] 0.052 | nilotinib 0.008 | [3] 0.004 | dasatinib -0.004 | [4] 0 | [5] 0.004 | quisinostat 0.012 | tipifarnib -0.014 | [6] 0.026 | [7] -0.018 | [8] -0.033

VPS4B (UniProt O75351)
inactive: lapatinib 0.012 | pictilisib 0 | crizotinib 0.029 | [1] 0.045 | duvelisib -0.008 | gandotinib -0.095 | tozasertib 0.002 | doramapimod 0.02 | bafetinib 0.064 | [2] -0.061 | nilotinib 0.049 | [3] 0.004 | dasatinib -0.053 | [4] -0.031 | [5] 0.014 | quisinostat 0.072 | tipifarnib -0.022 | [6] 0.024 | [7] 0.007 | [8] -0.036

WDR74 (UniProt Q6RFH5)
inactive: lapatinib 0.046 | pictilisib -0.038 | crizotinib -0.036 | [1] -0.027 | duvelisib 0.032 | gandotinib -0.019 | tozasertib -0.023 | doramapimod 0.013 | bafetinib -0.06 | [2] 0.002 | nilotinib 0.037 | [3] -0.005 | dasatinib 0.004 | [4] 0.045 | [5] -0.045 | quisinostat -0.03 | tipifarnib 0.036 | [6] 0.036 | [7] -0.057 | [8] 0.016

VPS13B (UniProt Q7Z7G8)
inactive: lapatinib -0.013 | pictilisib -0.004 | crizotinib 0.01 | [1] -0.042 | duvelisib 0.007 | gandotinib -0.037 | tozasertib -0.06 | doramapimod -0.075 | bafetinib -0.067 | [2] 0.109 | nilotinib -0.045 | [3] 0.05 | dasatinib 0.072 | [4] -0.038 | [5] -0.045 | quisinostat -0.12 | tipifarnib 0.041 | [6] -0.07 | [7] -0.116 | [8] -0.051

Reference: the supplement of paper PMC10849652
